PubChem BioAssay AID504744, Drosophila RNAi Screening Center | 2011
The deposit covers about 23,000 reagents; shown is an unselected part of those that have a named target and a result. In the full data, 98 (0.43%) were called active. 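Only hit calls are given; the phospho-dAkt signals, z-scores and hit direction were not deposited.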 Names joined by + are all predicted targets of the reagent.

Aim: 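Find genes whose loss alters insulin-driven dAkt phosphorylation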 (primary screen)
Cell system: Drosophila Kc167 cells
Knock-down reagent: long dsRNA against Drosophila genes, 250 ng dsRNA per well of a 384-well plate
Timing: 3 days of knock-down, then overnight serum-free starvation before stimulation
Conditions: bovine insulin at 387 nM for 10 minutes after 12 h without serum
Detection: 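Per-well phospho-dAkt level from an in-cell fluorescent antibody stain, divided by a DNA-dye signal; log2 residuals turned into z-scores that take cell number into account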
Rule for the call: 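Under insulin, a gene counts as a hit if the average z-score of two replicates lies above 2.5 or below -2.5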

What did the screen give for RabGGTa (GeneID 40617) [DRSC12189]?
Call: inactive

What did the screen give for Sprn (GeneID 39344) [DRSC10132]?
Call: inactive

For CG15443 (GeneID 33656) [DRSC00455], how do the results read?
Call: inactive

Which result is listed for Srlp (GeneID 41533) [DRSC15890]?
Call: inactive

With sle + CG12592 [DRSC21387], how do the results read?
Call: inactive

With MED28 (GeneID 43079) [DRSC15721], how do the results read?
Call: inactive

For Tpi (GeneID 43582) [DRSC16888], how do the results read?
Call: inactive

With PIG-H + Kmn2 [DRSC12653], how do the results read?
Call: inactive

For Acp26Aa (GeneID 33817) [DRSC01855], how do the results read?
Call: inactive

Which result is listed for Cdc23 (GeneID 35315) [DRSC02708]?
Call: inactive

What did the screen give for CG12688 (retired record) (GeneID 31378) [DRSC17877]?
Call: inactive

How did the screen score CG12688 (retired record) (GeneID 31378) [DRSC17878]?
Call: inactive

For PGS1 (GeneID 42254) [DRSC16304], what does the deposit list?
Call: inactive

Which result is listed for CG6254 (GeneID 41244) [DRSC16002]?
Call: inactive

For Galphaq (GeneID 36384) [DRSC07432], how do the results read?
Call: inactive

For CG9849 (GeneID 37647) [DRSC04573], how do the results read?
Call: inactive

With bun (GeneID 34665) [DRSC01253], what does the deposit list?
Call: inactive

Which result is listed for bun (GeneID 34665) [DRSC01255]?
Call: inactive

What did the screen give for bun (GeneID 34665) [DRSC03500]?
Call: inactive

How did the screen score RpS26 (GeneID 35098) [DRSC03420]?
Call: inactive

For wfs1 (GeneID 42679) [DRSC15676], what was measured?
Call: inactive

With CG10903 (GeneID 40952) [DRSC14281], what was measured?
Call: inactive

With Ufl1 (GeneID 40843) [DRSC12527], what does the deposit list?
Call: inactive

Reprinted from the listing (5 entries):
PIG-H + Kmn2 [DRSC12653]: Call = inactive
Acp26Aa (GeneID 33817) [DRSC01855]: Call = inactive
Cdc23 (GeneID 35315) [DRSC02708]: Call = inactive
CG12688 (retired record) (GeneID 31378) [DRSC17877]: Call = inactive
CG12688 (retired record) (GeneID 31378) [DRSC17878]: Call = inactive

The results go on.
With mbm + CG11555 [DRSC00315], how do the results read?
Call: inactive

With CG8944 (GeneID 32517) [DRSC20128], how do the results read?
Call: inactive

For CG8944 (GeneID 32517) [DRSC21342], what was measured?
Call: inactive

What is on record for TfIIEbeta (GeneID 38527) [DRSC08701]?
Call: inactive

For Tsp68C (GeneID 117407) [DRSC09295], what does the deposit list?
Call: inactive

With CG2617 (GeneID 35331) [DRSC02712], what does the deposit list?
Call: inactive

How did the screen score spz (GeneID 43256) [DRSC17065]?
Call: inactive

What did the screen give for CG13481 (GeneID 39579) [DRSC10023]?
Call: inactive

How did the screen score stet (GeneID 38169) [DRSC08246]?
Call: inactive

With stet (GeneID 38169) [DRSC08283], how do the results read?
Call: inactive

With CG1889 (GeneID 31928) [DRSC18195], what does the deposit list?
Call: inactive

How did the screen score Setx (GeneID 38904) [DRSC10859]?
Call: inactive

With CG14480 (GeneID 36988) [DRSC06452], what does the deposit list?
Call: inactive

For CG32645 (GeneID 32264) [DRSC19683], how do the results read?
Call: inactive

What is on record for CG32645 (GeneID 32264) [DRSC19889]?
Call: inactive

With Ntmt (GeneID 36022) [DRSC06624], what does the deposit list?
Call: inactive

What did the screen give for CCDC53 (GeneID 34097) [DRSC03056]?
Call: inactive

What is on record for CG5112 (GeneID 43083) [DRSC15718]?
Call: inactive

With OdsH (GeneID 32758) [DRSC20263], how do the results read?
Call: inactive

With CG17377 (GeneID 33954) [DRSC00950], what does the deposit list?
Call: inactive

For CG17377 (GeneID 33954) [DRSC02615], how do the results read?
Call: inactive

What did the screen give for CG17377 (GeneID 33954) [DRSC21811]?
Call: inactive

What did the screen give for Sting (GeneID 36016) [DRSC06615]?
Call: inactive

For RNaseX25 (GeneID 38885) [DRSC11259], how do the results read?
Call: inactive

What is on record for CG6686 (GeneID 34608) [DRSC02979]?
Call: inactive

With kek2 (GeneID 34582) [DRSC03552], what was measured?
Call: inactive

What did the screen give for scpr-A + scpr-C + scpr-B [DRSC15715]?
Call: inactive

Which result is listed for CG11007 (GeneID 37249) [DRSC06023]?
Call: inactive

Which result is listed for AsnRS-m (GeneID 36909) [DRSC07010]?
Call: inactive

How did the screen score CG3040 (GeneID 31642) [DRSC22486]?
Call: inactive

With Acbp4 (GeneID 38781) [DRSC11023], what was measured?
Call: inactive

For dpr17 (GeneID 41470) [DRSC12885], what was measured?
Call: inactive

What is on record for dpr17 (GeneID 41470) [DRSC14957]?
Call: inactive

How did the screen score dpr17 (GeneID 41470) [DRSC14958]?
Call: inactive
